The text below walks through data of paper PMC9988348.

By UniProt entry, the sequences of proteins in these tests, tags left out. Where a name states a change or a piece, a line headed by the entry shows the natural chain unless it says otherwise.
UniProt P0A6X3: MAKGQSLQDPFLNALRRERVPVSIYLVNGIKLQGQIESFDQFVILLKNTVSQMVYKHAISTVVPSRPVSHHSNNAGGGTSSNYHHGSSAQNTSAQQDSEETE

Construct, isoform or probe ends are uncertain for at least one entry.

The series addresses Hfq (UniProt P0A6X3). The experiment in a line: footprinting (lead acetate). The note with it: 1 uM Hfq, yeast tRNA 0.15 mg/ml competitor, Footprint: about 0.2 pmol 5'-32P oppA RNA with 1 uM Hfq, 10 min 37 C, then 10 mM PbAc 2 min, recombinant protein, label: 5'-32P, probe letters rebuilt from the primers and the genome.

With “GGGAUCGACAUAAGGUGAUCGUCUGAAUCACCAGAAUAAAUAAAGUCGGUGAUAGUAAUACGUAACGAUAAAGUAACCUGACAGCAGAAAGUCUCCGAGCCUGUGCAGGGUCCCAAUCCGGGAUUACACAUGCUGGUUAAUACCAGUAAUUAUAAUGAGGGAGUCCAAAAAACAAUGACCAACAUCACCAAGAGAAGUUUAGUAGCAGCUGGCGUUCUGGCUGCGCUAAUGGCAGGGAAUGUCGCGCUGGCAGCUGAUGUACCCGCAGGCGUCACACUGGCGGAAAAACAAACACUGGUACGUAACAAUGGUUCAGAAG [oppA 5'UTR RNA from cleavage site +341 (γ-oppA)]”, the binding result is reported as “binds”.
